Results on five molecules are retold here after article PMC12454742.

Chains of the proteins cited; added tags and fusions are not shown. Lines headed by an entry give the natural chain unless they say otherwise; changes in a name come on top.
UniProt Q94AY3: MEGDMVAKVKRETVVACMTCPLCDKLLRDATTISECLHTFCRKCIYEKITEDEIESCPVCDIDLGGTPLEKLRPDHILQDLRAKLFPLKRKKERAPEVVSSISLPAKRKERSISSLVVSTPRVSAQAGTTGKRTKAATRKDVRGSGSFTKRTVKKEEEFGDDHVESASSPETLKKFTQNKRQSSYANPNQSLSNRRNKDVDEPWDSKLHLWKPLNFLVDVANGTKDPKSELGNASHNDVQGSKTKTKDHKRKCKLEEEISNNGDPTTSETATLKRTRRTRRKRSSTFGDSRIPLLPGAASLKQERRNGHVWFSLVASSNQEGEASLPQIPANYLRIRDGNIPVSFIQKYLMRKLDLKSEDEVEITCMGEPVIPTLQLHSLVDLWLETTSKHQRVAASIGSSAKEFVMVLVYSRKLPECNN
UniProt Q9LS86: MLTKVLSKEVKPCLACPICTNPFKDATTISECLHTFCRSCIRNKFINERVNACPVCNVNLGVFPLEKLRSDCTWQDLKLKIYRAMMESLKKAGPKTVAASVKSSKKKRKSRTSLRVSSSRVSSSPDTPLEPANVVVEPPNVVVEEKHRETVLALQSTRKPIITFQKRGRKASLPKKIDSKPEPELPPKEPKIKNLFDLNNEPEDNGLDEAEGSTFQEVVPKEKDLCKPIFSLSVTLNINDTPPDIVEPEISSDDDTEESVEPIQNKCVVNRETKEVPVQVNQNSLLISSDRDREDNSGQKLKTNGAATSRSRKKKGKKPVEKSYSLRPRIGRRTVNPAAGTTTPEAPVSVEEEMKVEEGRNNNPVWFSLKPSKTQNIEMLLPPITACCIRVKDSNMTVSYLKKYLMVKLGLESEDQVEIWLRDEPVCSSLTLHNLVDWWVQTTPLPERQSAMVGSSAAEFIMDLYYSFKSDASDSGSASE
UniProt Q9M9Y4: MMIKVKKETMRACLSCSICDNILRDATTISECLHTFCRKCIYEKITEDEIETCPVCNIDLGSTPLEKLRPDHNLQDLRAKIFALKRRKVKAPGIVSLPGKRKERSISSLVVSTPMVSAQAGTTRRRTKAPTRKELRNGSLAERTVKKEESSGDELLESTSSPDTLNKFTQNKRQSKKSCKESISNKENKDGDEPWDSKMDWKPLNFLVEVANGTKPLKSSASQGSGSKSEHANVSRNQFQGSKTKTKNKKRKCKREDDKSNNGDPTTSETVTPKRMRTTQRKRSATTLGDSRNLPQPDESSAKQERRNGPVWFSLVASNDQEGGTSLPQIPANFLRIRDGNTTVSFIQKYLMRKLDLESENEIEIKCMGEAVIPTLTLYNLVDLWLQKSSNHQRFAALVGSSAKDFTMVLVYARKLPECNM

Assay [1] concerns the target T1, GFP-CAP-H2 (Arabidopsis thaliana) (UniProt Q9LUR0).
T1 sequence: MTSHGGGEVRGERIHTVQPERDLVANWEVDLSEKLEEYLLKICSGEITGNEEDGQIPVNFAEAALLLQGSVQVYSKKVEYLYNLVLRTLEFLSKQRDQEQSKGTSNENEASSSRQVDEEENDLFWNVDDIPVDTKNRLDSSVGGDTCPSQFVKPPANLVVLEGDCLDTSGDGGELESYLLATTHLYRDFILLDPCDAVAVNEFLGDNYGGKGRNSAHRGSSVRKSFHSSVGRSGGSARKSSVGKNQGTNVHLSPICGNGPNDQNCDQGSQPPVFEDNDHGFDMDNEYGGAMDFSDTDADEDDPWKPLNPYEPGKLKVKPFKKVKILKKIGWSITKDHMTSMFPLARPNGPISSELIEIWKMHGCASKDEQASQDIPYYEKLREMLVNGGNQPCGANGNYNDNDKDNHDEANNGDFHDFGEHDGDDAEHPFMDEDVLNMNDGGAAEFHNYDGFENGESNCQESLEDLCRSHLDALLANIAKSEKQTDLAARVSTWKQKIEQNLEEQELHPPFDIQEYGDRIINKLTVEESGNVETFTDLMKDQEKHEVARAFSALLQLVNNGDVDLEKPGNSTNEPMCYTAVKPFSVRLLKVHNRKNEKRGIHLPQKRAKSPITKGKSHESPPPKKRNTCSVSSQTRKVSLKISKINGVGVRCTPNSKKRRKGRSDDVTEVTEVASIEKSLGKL
Put plainly: co-IP; lysate of Nicotiana benthamiana leaves co-expressing both proteins; GFP-Trap beads, 2 h at 4 °C, EWB buffer (50 mM Tris-HCl pH 7.5, 150 mM NaCl, 0.1% Triton X-100); blots with anti-GFP and anti-MYC.

Assay [2] addresses T2, GFP-CAP-H (Arabidopsis thaliana) (UniProt Q564K3).
T2 sequence: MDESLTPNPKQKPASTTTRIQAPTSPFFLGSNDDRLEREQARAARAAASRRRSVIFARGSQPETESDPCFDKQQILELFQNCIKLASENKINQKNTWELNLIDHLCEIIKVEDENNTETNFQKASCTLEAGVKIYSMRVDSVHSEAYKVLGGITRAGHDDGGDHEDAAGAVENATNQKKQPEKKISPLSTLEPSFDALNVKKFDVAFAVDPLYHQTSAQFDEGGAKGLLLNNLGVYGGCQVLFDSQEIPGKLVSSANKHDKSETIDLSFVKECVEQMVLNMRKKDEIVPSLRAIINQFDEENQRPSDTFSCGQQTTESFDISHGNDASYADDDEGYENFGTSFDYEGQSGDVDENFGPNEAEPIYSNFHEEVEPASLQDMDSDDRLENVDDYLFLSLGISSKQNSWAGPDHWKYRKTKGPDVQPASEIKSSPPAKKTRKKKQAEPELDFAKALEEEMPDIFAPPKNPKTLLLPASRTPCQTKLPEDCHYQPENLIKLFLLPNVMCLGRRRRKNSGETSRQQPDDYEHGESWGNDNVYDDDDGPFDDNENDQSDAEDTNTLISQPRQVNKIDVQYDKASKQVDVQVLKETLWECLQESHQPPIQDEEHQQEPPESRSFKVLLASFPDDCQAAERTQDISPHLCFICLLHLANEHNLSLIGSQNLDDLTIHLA
The description is as above.

The target in assay [3] is nYFP-BMI1A (Arabidopsis thaliana) (UniProt Q94AY3). As to the kind of experiment: split reporter; BiFC with nYFP and cYFP fusions, agroinfiltrated Nicotiana benthamiana leaves, imaged after 2-3 days by confocal microscopy.
Assay [4] has as its target BMI1C, yeast two-hybrid fusion (Arabidopsis thaliana) (UniProt Q9LS86). Put plainly: two-hybrid; bait and prey plasmids co-transformed into yeast strain Y2H Gold; interaction checked on SD medium minus Trp, Leu and His; 3-5 days at 28 °C.
Assay [5] deals with BMI1B, yeast two-hybrid fusion (Arabidopsis thaliana) (UniProt Q9M9Y4). The description is as above.

Results are given in words; binding and its absence hold for the method and conditions named. For some assays here: Binding seen in cells or lysates may run through a third protein. For some assays here: Binding calls can cover weak binding; strength is not graded here. Tags and fused reporters may be left off the sequences shown.

For BMI1A-MYC (from UniProt Q94AY3), the binding entry in assay [1] and in assay [2] was “binds” throughout.

B1: cYFP-CAP-H2 (protein, UniProt Q9LUR0 1-683)
chain: T1 sequence
Regarding B1, the binding result in assay [3] is given as “binds”.

B2: CAP-H2 (Chromosome-Associated Protein H2, condensin II kleisin subunit), yeast two-hybrid fusion (protein, UniProt Q9LUR0 1-683)
chain: T1 sequence
With B2, the binding entry in assay [4] and in assay [5] was “no binding” each time.

B3: cYFP-CAP-H (protein, UniProt Q564K3 1-671)
chain: T2 sequence
With B3, in assay [3], the binding entry is recorded as “binds”.

B4: CAP-H (Chromosome-Associated Protein H, condensin I kleisin subunit), yeast two-hybrid fusion (protein, UniProt Q564K3 1-671)
chain: T2 sequence
For the molecule B4, the binding result in assay [4] and in assay [5] was “no binding” each time.
